Values of other authors, collected in patent publication US20150217046A1, “DOSING REGIMENS FOR SUBCUTANEOUSLY INFUSIBLE ACIDIC COMPOSITIONS” (SynAgile Corporation, priority 2012, published 2015).
Like-named read-outs stand apart in the source and are kept apart here.

Settings: cited from earlier work

SMILES: N[C@@H](Cc1ccc(O)c(O)c1)C(=O)O [levodopa]
- plasma half-life (patients receiving also an inhibitor of L-DOPA decarboxylase): about 10^2 minutes
- plasma half-life (with co-administered CD): approximately 90 minutes
